## Library screen at single concentrations

From ChEMBL document CHEMBL3988442, “University of Dundee, Small-Polar-MMV Screening Library” (2021).

Values are the deposited “Percent Effect”, in %.
The record does not define 0% and 100%; most values in the screen are far below 50% and negative numbers occur (in some assays of this library far below -100).
Compounds were drawn at random from those tested, without regard to their results.

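Whole-parasite assay of Trypanosoma brucei over 72 hours; the read-out is not stated. Tested at 30 µM. Direction is inferred from retests: higher values go with stronger inhibition. Values scatter widely below zero; nearly all retest evidence comes from the higher of the two concentrations used. Size under these conditions: about 64,000 compounds, about 940 of them at 50% or above in at least one test.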

| SMILES | Percent Effect |
|---|---|
| `c1ccc(C2CCCN(c3cncc(-n4cccn4)n3)CC2)cc1` (centres unmarked) | -36.04% |
| `CS(=O)(=O)N1CCN(C(=O)c2cc(-c3ccco3)cs2)CC1` | -20.32% |
| `CCOc1ccc(CN2CCCC(c3cc4ncccc4[nH]3)C2)cc1` (centres unmarked) | 100.2% |
| `CNc1cc(C(=O)N2CCC3(CC2)Nc2ccccc2NC3=O)ccn1` | -4.942% |
| `CCCN(C(=O)c1cc2c([nH]c1=O)CCCC2=O)C1CCCCC1` | -11.72% |
| `O=C(CN1CCCCCC1)N1CCc2nnc(C3CCCNC3)n2CC1` (centres unmarked) | -27.84% |
| `Cc1ccc(C(=O)O)c(N2CC(C)(C)[C@@](C)(O)C2)n1` | 8.968% |
| `CCOc1nnc(CN(C)C2CCCN(c3ccc(C)nn3)C2)s1` (centres unmarked) | -16.4% |
| `CCCc1nnsc1C(=O)NCC(O)c1ccoc1` (centres unmarked) | -14.91% |
| `[H][C@@]12COC[C@]1(C(=O)NC1CC(F)(F)C1)CN(Cc1ccsc1)C2` | -54.7% |
| `O=C(O)C(F)(F)F.[H][C@]12CCN(S(=O)(=O)c3cccs3)C[C@@]1([H])OCCN(C)C2` | -41.66% |
| `Cc1nc(N(C)C)nc2c1COCC21CCN(C(=O)C2CC2)C1` (centres unmarked) | -1.484% |
| `O=C(O)C(F)(F)F.[H][C@@]12CCC(=O)N(c3ccccc3)[C@]1([H])CCN2C(=O)c1cccc(C)n1` | -12.94% |
| `CCc1nn(C)c2[nH]nc(NC(=O)c3cccnc3OC)c12` | -25.27% |
| `Cc1cc(C)cc(OCC(=O)N2CCCC2)c1` | -22.92% |
| `Cc1cccc(OCCCNC(=O)Cn2ccc(C)cc2=O)c1` | -16.08% |
| `COc1ccc(CC(=O)N2CCCC(c3nncn3C)C2)cc1` (centres unmarked) | 20.63% |
| `Cc1cc(C(=O)NCc2ccco2)nn1C` | -17.91% |
| `CC(=O)N1CCN(C(C)c2ccc(Br)cc2)CC1` (centres unmarked) | -7.533% |
| `COc1ccc(F)c(-c2cc(C)nc(N)n2)c1` | -19.16% |
| `CCn1ccnc1CN(C)c1cc(OC)ncn1` | -58.97% |
| `CC(=O)CCC(=O)N1CCC2(CC1)N=C(CCC(C)C)NC2=O` | -22.06% |
| `[H][C@@]12C[C@H](C(=O)NCc3ccccc3)[C@@]([H])(CN(S(=O)(=O)N(C)C)C1)O2` | 26.14% |
| `Cc1nccc(N2CCCC(c3nnc(Cn4ccnc4C)n3C)C2)n1` (centres unmarked) | -49.07% |
| `N#Cc1cn(CCN2CCc3ccccc3C2)c(=O)[nH]c1=O` | -1.519% |
| `Fc1cccc(Oc2nccnc2C2CCN(C3CCOCC3)CC2)c1` | -17.84% |
| `Cc1cc2c(=O)n3c(nc2s1)CCN(C(=O)c1ccn(C)n1)CC3` | 7.016% |
| `COc1ccccc1C(O)CNC(=O)NCc1cccnc1OC` (centres unmarked) | -36.53% |
| `CC(CNC(=O)CCc1ccccn1)c1ccsc1` (centres unmarked) | -22.95% |
| `COc1cc(Cl)c(C)cc1-n1nnc(C(=O)O)c1-c1ccncc1` | -30.74% |
| `CCC1c2cccn2CCN1C(=O)c1ccno1` (centres unmarked) | -15.88% |
| `CCc1cccc(NC(=O)CCN2CC=C(c3cnn(C)c3)CC2)c1` | -121.5% |
| `FC(F)(F)c1ccnc(N2CCCC(N3CCOCC3)C2)c1` (centres unmarked) | -23.65% |
| `O=C(NS(=O)(=O)c1ccccc1)c1ccccc1F` | -11.77% |
| `COc1ccc(CCC2CCCCN2)cc1.Cl` (centres unmarked) | -13.09% |
| `Cc1n[nH]c(C)c1CC(=O)N1CCCN(C)C2(CCN(C)CC2)C1` | -14.91% |
| `CCOc1cc(Cl)ccc1CNC(=O)c1ccc(=O)n(C)c1` | -127.2% |
| `COc1ccc(C(CNC(=O)NCc2csc(C)n2)N(C)C)cc1` (centres unmarked) | 32.76% |
| `O=C(C1CCCN(Cc2cccnc2)C1)N1CCc2sccc2C1` (centres unmarked) | -2.449% |
| `CCN(CC)C(=O)CNC(=O)c1ccc(-c2ccsc2)nc1C` | -36.17% |
| `O=C(CCC1CCN(C(=O)c2cc[nH]c2)CC1)NCc1cccc(Cl)c1` | 1.277% |
| `CC(C)N(C)Cc1cnc2n1CCN(Cc1ccc(F)cc1)C2.O=C(O)C(F)(F)F.O=C(O)C(F)(F)F` | 5.253% |
| `Cc1nc(C(C)C)ncc1C(=O)N1CCCC(N2CCCC2)C1` (centres unmarked) | -4.299% |
| `Cc1ccc2c(n1)N(CC1CC1)CCN(Cc1ccco1)C2.O=C(O)C(F)(F)F.O=C(O)C(F)(F)F` | -28.81% |
| `COCCN1CCCC(O)(CN2CCCN(c3ncccn3)CC2)C1=O` (centres unmarked) | -34.32% |
| `CCc1nc(C)sc1CN(Cc1ccncc1)C1CCN(C)CC1` | -17.46% |
| `CC(C)n1c2ccccc2c2c1cc(C(=O)NC1CC1)n2C(=O)N(C)C` | -4.738% |
| `CCNC(=O)CCN1CCCC1c1cccc2c1OCCO2` (centres unmarked) | 28.99% |
| `Cc1csc(CCCNc2ccc(S(N)(=O)=O)cc2C#N)n1` | -27.7% |

6 of the entries, repeated:

With Cc1nc(N(C)C)nc2c1COCC21CCN(C(=O)C2CC2)C1 (centres unmarked) the screen gave -1.484%.
With CNc1cc(C(=O)N2CCC3(CC2)Nc2ccccc2NC3=O)ccn1 the screen gave -4.942%.
With COc1cc(Cl)c(C)cc1-n1nnc(C(=O)O)c1-c1ccncc1 the screen gave -30.74%.
With CC(C)n1c2ccccc2c2c1cc(C(=O)NC1CC1)n2C(=O)N(C)C the screen gave -4.738%.
With CC(=O)CCC(=O)N1CCC2(CC1)N=C(CCC(C)C)NC2=O the screen gave -22.06%.
With CCOc1cc(Cl)ccc1CNC(=O)c1ccc(=O)n(C)c1 the screen gave -127.2%.